In publication PMC5996148:
The other results are listed elsewhere or left out. For some of these results: Construct or isoform of the protein are uncertain.

Assays:
Assay in all cases: protein microarray (ProtoArray v5.0), streptavidin-Alexa Fluor 647
Settings in all cases: 3'-biotin; 20 mM Tris (pH 7.5), 5 mM MgCl2, 100 mM KCl, 0.1% Tween-20, A/T-rich and random oligonucleotide blockers; temperature not stated; high values mean tight binding
[1] = test system: CD244 (human)
[2] = test system: CD44 antigen (human)
[3] = test system: CD74 (human)
[4] = test system: CD9 (human)
[5] = test system: CDC123 (human)
[6] = test system: CDC37 (human)
[7] = molecular target: T1, CDC40 (UniProt O60508)
T1 sequence: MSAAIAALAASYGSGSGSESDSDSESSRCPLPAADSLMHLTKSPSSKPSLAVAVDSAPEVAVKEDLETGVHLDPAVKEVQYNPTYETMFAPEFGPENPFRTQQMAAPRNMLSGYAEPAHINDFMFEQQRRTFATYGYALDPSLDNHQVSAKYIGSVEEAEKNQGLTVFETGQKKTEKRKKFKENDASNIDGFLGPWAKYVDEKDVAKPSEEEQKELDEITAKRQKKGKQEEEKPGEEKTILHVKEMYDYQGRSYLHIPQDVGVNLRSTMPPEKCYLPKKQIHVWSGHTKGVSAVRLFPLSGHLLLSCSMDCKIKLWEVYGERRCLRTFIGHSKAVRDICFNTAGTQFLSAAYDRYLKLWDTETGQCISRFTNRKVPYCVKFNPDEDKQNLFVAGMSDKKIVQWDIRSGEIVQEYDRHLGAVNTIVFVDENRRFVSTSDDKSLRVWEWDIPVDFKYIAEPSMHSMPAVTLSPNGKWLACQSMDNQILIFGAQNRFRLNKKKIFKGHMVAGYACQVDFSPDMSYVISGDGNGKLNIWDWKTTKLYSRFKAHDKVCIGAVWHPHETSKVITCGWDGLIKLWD

[8] = test system: CDC42 (human)
[9] = test system: CDCA4 (human)
[10] = test system: CDK5 regulatory subunit-associated protein 3 (human)

“GGTGACAGGGGTATGGGGAGGGG [G4-2 biotinylated (Ct1)]” gave a binding signal [1] of -0.371 z-score, a binding signal [2] of -0.382 z-score and a binding signal [3] of -0.389 z-score. It also gave a binding signal [4] of -0.388 z-score, a binding signal [5] of -0.39 z-score and a binding signal [6] of -0.382 z-score. For the same sequence, the binding signal [7] was 3 z-score, the binding signal [8] was -0.363 z-score and the binding signal [9] was -0.392 z-score. The binding signal [10] was -0.41 z-score.
